Data reported in the supplement of paper PMC4683952.
This is one part of the list. Rule as the data show it: active = 2 or more and inactive = the rest. Repeats in this data set agree poorly, so a single value says little.

system: Lgr5 (MarsCy1-Lgr5-EGFP, U2OS); assay: cell-surface Lgr5 expression (SCi1 fluorescence, background-subtracted) relative to WT DMSO (fold of DMSO control); higher = more Lgr5 at the plasma membrane; conditions: U2OS MarsCy1-Lgr5-EGFP stable; treatment time: overnight; library: ActiProbe-5K (TimTec); 25 µM

SMILES	cell-surface Lgr5 expression
C=CCC1(/C=C/C)CCCCN1.Cl (stereo not drawn)	inactive: 1.05
Sc1nnc(COc2ccccc2)o1	inactive: 1.29
Oc1cc(O)c2sc3nc(-c4ccncc4)ccc3c2n1	inactive: 1.15
O=[N+]([O-])c1ccc(F)cc1C(F)(F)F	inactive: 1.36
[Br-].[NH2+]=c1sc2ccccc2n1C(=O)OCc1ccccc1	inactive: 0.953
CC12CCC(=O)C=C1CCC1(C)C2(C)CCC2(C)C(C(=O)CO)CCC21C (stereo not drawn)	inactive: 1.86
COc1ccc(C2Oc3c(ccc4cc(OC)c(OC)cc34)-c3cc(OC)c(OC)cc32)cc1 (stereo not drawn)	inactive: 1.98
C1=CC2c3cccc4c3N(CC2C1)CC1CC=CC41 (stereo not drawn)	inactive: 1.22
Cc1[nH]nc2c1C1(CC(C)N(C)CC1C)C(C#N)=C(N)O2 (stereo not drawn)	inactive: 1.08
CN1C(=O)C2C=CC=CC2N=C1SCC(N)=O (stereo not drawn)	inactive: 1.14
O=c1nc(O)c2sc3nc(C45CC6CC(CC(C6)C4)C5)ccc3c2[nH]1	inactive: 1.64
Cc1[nH]c(=O)c(C#N)c2c1COC(C)(C)C2	inactive: 1.29
COc1cc(/C=N\c2cc(OC)c(OC)c(OC)c2)cc(OC)c1OC	inactive: 1.07
CC(=O)c1nnn(C2CCCCC2)c1NC1CCCCC1	inactive: 1.59
CN1CCC2(CC1)C1CN(C)CC=C1C(C#N)=C(N)C2(C#N)C#N (stereo not drawn)	inactive: 1.35
CC(=O)C12CC3CC(CC(C3)C1)C2	inactive: 1.31
CCCCCCCCCn1cnc2c1c(=O)n(C)c(=O)n2C	inactive: 1.4
O=c1ccnc(NC2CCCCC2)[nH]1	inactive: 1.32
CN(C)S(=O)(=O)Nc1ccc2c(c1)Cc1ccccc1-2	inactive: 0.998
C1C\C(=N/Nc2nc(c(CCCC)c(n2)C)O)CC1	inactive: 1.07
O=c1[nH]c(=O)c2sc3nc(C4CC4)cc(C(F)(F)F)c3c2[nH]1	inactive: 1.15
NC(=O)c1nc(NC2CC2)sc1N	inactive: 1.05
CN1CCc2c(-c3cccs3)nc(S)c(C#N)c2C1	inactive: 1.1
N#C/C(=C/c1cc(CSc2nnc(N)s2)cs1)C(N)=S	inactive: 1.04
O=C(O)Cn1cc([N+](=O)[O-])nc1Cl	inactive: 0.93
O=C1c2ccccc2-c2nc3nonc3nc21	inactive: 0.617
CC(C)Cc1nc2[nH]nc(N)c2c2c1CCCC2	inactive: 1.23

Two compounds drawn at random from those above:
SMILES	cell-surface Lgr5 expression
CC(C)Cc1nc2[nH]nc(N)c2c2c1CCCC2	inactive: 1.23
Oc1cc(O)c2sc3nc(-c4ccncc4)ccc3c2n1	inactive: 1.15

Next compounds follow.

SMILES	cell-surface Lgr5 expression
c1ccc(N2CCN(c3ccccc3)C2c2ccco2)cc1	inactive: 0.983
FC(F)(F)c1ccc2nnc(-c3ccc(Cl)cc3Cl)n2c1	inactive: 0.823
NS(=O)(=O)c1cc2c(cc1Cl)NCNS2(=O)=O	inactive: 1.18
Brc1cnn(-c2nc(N3CCOCC3)nc(N3CCOCC3)n2)c1	inactive: 0.888
CN1C(=O)CN(C(=O)OC(C)(C)C)[C@@H]1C(C)(C)C	inactive: 1.09
O=c1c2cccc3cccc(c32)c2nc3ccccc3n12	inactive: 1.34
NC(=O)c1cnn2cc(-c3n[nH]cc3[N+](=O)[O-])cnc12	inactive: 1.03
CCS(=O)(=O)c1ccc(S(=O)(=O)CC)s1	inactive: 1.15
O=[N+]([O-])c1cc(Br)c2nsnc2c1N1CCCCCC1	inactive: 1.21
Nc1cc(Br)cc2cccnc12	inactive: 1.05
FC(F)(F)c1nnc2ccc(N3CCOCC3)nn12	inactive: 1.42
c1cc(-c2nn3c(C4CCCCC4)nnc3s2)ccn1	inactive: 1.15
FC(F)(F)Oc1ccc(/N=C\c2ccc[nH]2)cc1	inactive: 0.983
CCn1c(S)nc2c(=O)[nH]cnc21	inactive: 1.26
C=CCn1c(=O)n([C@@H]2O[C@H](CO)[C@@H](O)[C@H]2O)c2nc(N)[nH]c(=O)c21	inactive: 1.14
Cn1cccc1/C=N/NC(=O)c1cccs1	inactive: 1.42
Cc1cc2c(cc1C)CSC(c1ccc(N(C)C)cc1)SC2	inactive: 0.982
NC(=O)C[n+]1ccc(CCS(=O)(=O)[O-])cc1	inactive: 1.52
CC(=O)NC1=NN(C(C)=O)C(c2ccc(Br)s2)S1 (stereo not drawn)	inactive: 1.36
O=C(Nc1ccc(Cl)c(Cl)c1)OC1CC2CCC13CCCC23 (stereo not drawn)	inactive: 0.792
N#CC1=C(NC(=O)c2ccn(C(F)F)n2)CCC1	inactive: 1.05
CCCN1CC=C2C(C#N)=C(N)C(C#N)(C#N)C(CC)C2C1 (stereo not drawn)	inactive: 1.08
c1ccc2[nH]c(-c3nc4ccccc4[nH]3)nc2c1	inactive: 0.913
Nc1nonc1-c1ccccn1	inactive: 0.761
NNc1cccc2ncccc12	inactive: 0.785
O=C1NC(=S)N/C1=C/c1ccc(-c2ccc3c(c2)C(=O)NC3=O)o1	active: 2.35
